Experimental data taken from US20150181901A1, “Compositions and Methods for Tissue Storage” (priority 2012, published 2015).

Assay: Light microscopy (hematoxylin and eosin) of trehalose-treated meat after two weeks of freeze/thaw cycling (pork)
Conditions: six freeze/thaw cycles over two weeks
Method: Between the first week (three freeze/thaw cycles) and the second week (three more freeze/thaw cycles), there was no re-exposure to trehalose. All samples were removed from the refrigerator. Liquid was in most of the sample bags. Fluid was removed by a pipette and the volume was recorded, and the meat sample was weighed. Samples of about 1-2 grams were taken using a no. 10 scalpel, and placed in formalin. FIG. 6 discloses the volume of fluid lost during the second week of freeze/thaw cycles. […] Samples were taken of meat treated with 0%, 5%, 10%, or 15%, trehalose, where the samples were fixed in formalin, stained with hematoxylin and eosin, and examined with a microscope, under moderate power or high power. […] The characteristic of a bundle, or a myofibril, as being broken can be quantified in the following way. […] The characteristic of a bundle, or a myofibril, being broken and moved around can be quantified as follows. First, the overall longitudinal axis of the bundle or fibril is determined. […] Fourth, the angle of the edge, with respect to the overall longitudinal axis is measured. Fifth, angles of ten different fragments are measured. […] If the sum of the angles is zero degrees, that is, if all of the fragments are aligned with the overall longitudinal axis, then the sample of meat is determined (or defined) to be fragmented, but not moved around. […]

In the case of `OC[C@H]1O[C@H](O[C@H]2O[C@H](CO)[C@@H](O)[C@H](O)[C@H]2O)[C@H](O)[C@@H](O)[C@@H]1O` [trehalose, trehalose dihydride], the “horizontal fractures compared with 0% trehalose-treated meat” value (5% trehalose or 10% trehalose) is reported as “Increases, but to a lesser degree than with 15% trehalose” and the “horizontal fractures compared with 0% trehalose-treated meat” value (15% trehalose) is reported as “increase in horizontal fractures was seen”.
